In paper PMC6510727 one finds binding data, which are given here for one substance.

Protein sequences, listed by entry. Tags and fused reporters are not part of them. Lines headed by an entry give the natural chain unless they say otherwise; changes in a name come on top.
UniProt P38407: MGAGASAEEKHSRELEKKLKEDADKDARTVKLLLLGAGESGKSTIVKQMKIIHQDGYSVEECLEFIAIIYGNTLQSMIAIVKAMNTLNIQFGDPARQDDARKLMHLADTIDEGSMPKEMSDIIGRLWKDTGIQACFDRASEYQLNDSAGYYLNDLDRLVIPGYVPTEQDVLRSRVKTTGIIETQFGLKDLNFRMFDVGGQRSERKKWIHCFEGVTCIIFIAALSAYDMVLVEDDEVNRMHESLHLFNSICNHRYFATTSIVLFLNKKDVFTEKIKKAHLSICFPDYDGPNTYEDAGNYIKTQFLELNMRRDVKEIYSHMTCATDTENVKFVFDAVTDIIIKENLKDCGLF
UniProt H1AAN5: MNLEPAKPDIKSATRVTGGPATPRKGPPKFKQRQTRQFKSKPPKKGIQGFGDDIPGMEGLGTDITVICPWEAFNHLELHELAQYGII

Results are given in words; binding and its absence hold for the method and conditions named. A result given as binding can be weak or reduced; the word gives no strength.

In this experiment the target is biotinylated GTPγS-bound transducin α subunit (Tα-S*), frog (frog (Rana catesbeiana)) (UniProt P38407). Briefly: SPR; biotinylated Tα-S* immobilised on SA chip (~2300 RU); recombinant PDEγ or purified PDE injected at 1-16 nM on the same chip; binding and dissociation terminated before completion; Biacore X100, 25 °C, K-gluc buffer with 0.005% Tween 20, no cGMP; both purified. For orientation: SPR reads the build-up and loss of mass on a sensor chip optically.

For “recombinant frog PDEγ (inhibitory γ subunit of rod cGMP phosphodiesterase) (from UniProt H1AAN5)”, the binding result is given as “binds”.
